# Source: the supplement of paper PMC8728848
# This is one part of the list.
# B1: CRT-1 (Homo sapiens), P27797 (protein)
# chain: MLLSVPLLLGLLGLAVAEPAVYFKEQFLDGDGWTSRWIESKHKSDFGKFVLSSGKFYGDEEKDKGLQTSQDARFYALSASFEPFSNKGQTLVVQFTVKHEQNIDCGGGYVKLFPNSLDQTDMHGDSEYNIMFGPDICGPGTKKVHVIFNYKGKNVLINKDIRCKDDEFTHLYTLIVRPDNTYEVKIDNSQVESGSLEDDWDFLPPKKIKDPDASKPEDWDERAKIDDPTDSKPEDWDKPEHIPDPDAKKPEDWDEEMDGEWEPPVIQNPEYKGEWKPRQIDNPDYKGTWIHPEIDNPEYSPDPSIYAYDNFGVLGLDLWQVKSGTIFDNFLITNDEAYAEEFGNETWGVTKAAEKQMKDKQDEEQRLKEEEEDKKRKEEEEAEDKEDDEDKDEDEEDEEDKEEDEEEDVPGQAKDEL
# Key:
# Assay in all cases: glycan array binding signal (z-score within array); higher = stronger binding
# Details in all cases: glycan notation: IUPAC condensed, linker removed
# [1] = target: Fuc(a1-2)Gal(b1-4)GlcNAc(b1-6)GalNAc
# Outline: (§1)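 Glycan array data were curated from 3228 arrays in the Consortium for Functional Glycomics database and kept only where the protein sequence was available. Glycan names were converted to IUPAC-condensed notation, and columns mapping to the same glycan were averaged. The binding signal is a within-array Z-score, averaged across arrays of the same protein sequence at different concentrations or buffers and across linkers. Negative Z-scores can be read as non-binding.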
# [2] = target: Fuc(a1-2)Gal(b1-4)GlcNAc6S
# Outline: as §1
# [3] = target: Fuc(a1-2)Gal(b1-4)[Fuc(a1-3)]GlcNAc
# Outline: as §1
# [4] = target: Fuc(a1-2)Gal(b1-4)[Fuc(a1-3)]GlcNAc(b1-2)Man(a1-3)[Fuc(a1-2)Gal(b1-4)[Fuc(a1-3)]GlcNAc(b1-2)Man(a1-6)]Man(b1-4)GlcNAc(b1-4)GlcNAc
# Outline: as §1
# [5] = target: Fuc(a1-2)Gal(b1-4)[Fuc(a1-3)]GlcNAc(b1-2)Man(a1-3)[Fuc(a1-2)Gal(b1-4)[Fuc(a1-3)]GlcNAc(b1-2)Man(a1-6)]Man(b1-4)GlcNAc(b1-4)[Fuc(a1-6)]GlcNAc
# Outline: as §1
# [6] = target: Fuc(a1-2)Gal(b1-4)[Fuc(a1-3)]GlcNAc(b1-2)[Fuc(a1-2)Gal(b1-4)[Fuc(a1-3)]GlcNAc(b1-4)]Man(a1-3)[Fuc(a1-2)Gal(b1-4)[Fuc(a1-3)]GlcNAc(b1-2)Man(a1-6)]Man(b1-4)GlcNAc(b1-4)GlcNAc
# Outline: as §1
# [7] = target: Fuc(a1-2)Gal(b1-4)[Fuc(a1-3)]GlcNAc(b1-3)Gal(b1-4)[Fuc(a1-3)]GlcNAc
# Outline: as §1
# [8] = target: Fuc(a1-2)Gal(b1-4)[Fuc(a1-3)]GlcNAc(b1-3)Gal(b1-4)[Fuc(a1-3)]GlcNAc(b1-3)Gal(b1-4)[Fuc(a1-3)]GlcNAc
# Outline: as §1
# [9] = target: Fuc(a1-2)Gal(b1-4)[Fuc(a1-3)]GlcNAc(b1-3)GalNAc
# Outline: as §1
# [10] = target: Fuc(a1-2)Gal(b1-4)[Fuc(a1-3)]GlcNAc(b1-3)[Neu5Ac(a2-6)Gal(b1-4)GlcNAc(b1-6)]Gal(b1-4)Glc
# Outline: as §1
# [11] = target: Fuc(a1-2)Gal3S(b1-4)GlcNAc
# Outline: as §1
# [12] = target: Fuc(a1-2)Gal6S(b1-3)GlcNAc
# Outline: as §1
# [13] = target: Fuc(a1-2)Gal6S(b1-3)GlcNAc6S
# Outline: as §1
# Fuc(a1-2)Gal6S(b1-4)Glc = target: Fuc(a1-2)Gal6S(b1-4)Glc
# Outline: as §1
# [14] = target: Fuc(a1-2)Gal6S(b1-4)Glc6S
# Outline: as §1
# [15] = target: Fuc(a1-2)Gal6S(b1-4)GlcNAc
# Outline: as §1
# Fuc(a1-2)GlcNAc = target: Fuc(a1-2)GlcNAc
# Outline: as §1
# Fuc(a1-2)[Gal(a1-3)]Gal = target: Fuc(a1-2)[Gal(a1-3)]Gal
# Outline: as §1
# [16] = target: Fuc(a1-2)[Gal(a1-3)]Gal(b1-3)GalNAc
# Outline: as §1
# [17] = target: Fuc(a1-2)[Gal(a1-3)]Gal(b1-3)GalNAc(b1-3)Gal(a1-4)Gal(b1-4)Glc
# Outline: as §1
# [18] = target: Fuc(a1-2)[Gal(a1-3)]Gal(b1-3)GlcNAc
# Outline: as §1
# [19] = target: Fuc(a1-2)[Gal(a1-3)]Gal(b1-3)GlcNAc(b1-2)Man(a1-3)[Fuc(a1-2)[Gal(a1-3)]Gal(b1-3)GlcNAc(b1-2)Man(a1-6)]Man(b1-4)GlcNAc(b1-4)GlcNAc
# Outline: as §1
# [20] = target: Fuc(a1-2)[Gal(a1-3)]Gal(b1-3)GlcNAc(b1-2)Man(a1-3)[Fuc(a1-2)[Gal(a1-3)]Gal(b1-3)GlcNAc(b1-2)Man(a1-6)]Man(b1-4)GlcNAc(b1-4)[Fuc(a1-6)]GlcNAc
# Outline: as §1
# [21] = target: Fuc(a1-2)[Gal(a1-3)]Gal(b1-3)GlcNAc(b1-3)GalNAc
# Outline: as §1
# [22] = target: Fuc(a1-2)[Gal(a1-3)]Gal(b1-3)GlcNAc(b1-6)GalNAc
# Outline: as §1
# [23] = target: Fuc(a1-2)[Gal(a1-3)]Gal(b1-4)Glc
# Outline: as §1
# [24] = target: Fuc(a1-2)[Gal(a1-3)]Gal(b1-4)GlcNAc
# Outline: as §1
# [25] = target: Fuc(a1-2)[Gal(a1-3)]Gal(b1-4)GlcNAc(b1-2)Man
# Outline: as §1
# [26] = target: Fuc(a1-2)[Gal(a1-3)]Gal(b1-4)GlcNAc(b1-2)Man(a1-3)[Fuc(a1-2)[Gal(a1-3)]Gal(b1-4)GlcNAc(b1-2)Man(a1-6)]Man(b1-4)GlcNAc(b1-4)GlcNAc
# Outline: as §1
# [27] = target: Fuc(a1-2)[Gal(a1-3)]Gal(b1-4)GlcNAc(b1-2)Man(a1-3)[Fuc(a1-2)[Gal(a1-3)]Gal(b1-4)GlcNAc(b1-2)Man(a1-6)]Man(b1-4)GlcNAc(b1-4)[Fuc(a1-6)]GlcNAc
# Outline: as §1
# [28] = target: Fuc(a1-2)[Gal(a1-3)]Gal(b1-4)GlcNAc(b1-3)GalNAc
# Outline: as §1
# [29] = target: Fuc(a1-2)[Gal(a1-3)]Gal(b1-4)GlcNAc(b1-3)[Fuc(a1-2)[Gal(a1-3)]Gal(b1-4)GlcNAc(b1-6)]GalNAc
# Outline: as §1
# [30] = target: Fuc(a1-2)[Gal(a1-3)]Gal(b1-4)GlcNAc(b1-6)GalNAc
# Outline: as §1
# [31] = target: Fuc(a1-2)[Gal(a1-3)]Gal(b1-4)[Fuc(a1-3)]Glc
# Outline: as §1
# [32] = target: Fuc(a1-2)[Gal(a1-3)]Gal(b1-4)[Fuc(a1-3)]GlcNAc
# Outline: as §1
# [33] = target: Fuc(a1-2)[Gal(a1-3)]Gal(b1-4)[Fuc(a1-3)]GlcNAc(b1-3)GalNAc
# Outline: as §1
# [34] = target: Fuc(a1-2)[Gal(a1-4)]Gal(b1-4)GlcNAc
# Outline: as §1
# [35] = target: Fuc(a1-2)[GalNAc(a1-3)]Gal
# Outline: as §1
binder,measurement,setting,value
B1,glycan array binding signal (z-score),[1],-0.299
same,glycan array binding signal (z-score),[2],1.26
same,glycan array binding signal (z-score),[3],0.45
same,glycan array binding signal (z-score),[4],2.15
same,glycan array binding signal (z-score),[5],0.359
same,glycan array binding signal (z-score),[6],0.162
same,glycan array binding signal (z-score),[7],0.514
same,glycan array binding signal (z-score),[8],-0.191
same,glycan array binding signal (z-score),[9],0.11
same,glycan array binding signal (z-score),[10],-0.212
same,glycan array binding signal (z-score),[11],-0.292
same,glycan array binding signal (z-score),[12],-0.615
same,glycan array binding signal (z-score),[13],0.305
same,glycan array binding signal (z-score),Fuc(a1-2)Gal6S(b1-4)Glc,-0.675
same,glycan array binding signal (z-score),[14],-0.576
same,glycan array binding signal (z-score),[15],-0.237
same,glycan array binding signal (z-score),Fuc(a1-2)GlcNAc,0.616
same,glycan array binding signal (z-score),Fuc(a1-2)[Gal(a1-3)]Gal,-0.136
same,glycan array binding signal (z-score),[16],-0.128
same,glycan array binding signal (z-score),[17],0.027
same,glycan array binding signal (z-score),[18],-0.481
same,glycan array binding signal (z-score),[19],-0.672
same,glycan array binding signal (z-score),[20],0.196
same,glycan array binding signal (z-score),[21],-0.073
same,glycan array binding signal (z-score),[22],0.65
same,glycan array binding signal (z-score),[23],0.755
same,glycan array binding signal (z-score),[24],-0.547
same,glycan array binding signal (z-score),[25],0.071
same,glycan array binding signal (z-score),[26],0.635
same,glycan array binding signal (z-score),[27],-0.254
same,glycan array binding signal (z-score),[28],-0.01
same,glycan array binding signal (z-score),[29],1.09
same,glycan array binding signal (z-score),[30],-0.462
same,glycan array binding signal (z-score),[31],-0.424
same,glycan array binding signal (z-score),[32],0.498
same,glycan array binding signal (z-score),[33],-0.289
same,glycan array binding signal (z-score),[34],0.359
same,glycan array binding signal (z-score),[35],-0.149

# In a second layout: entries from further up.
binder	measurement	setting	value
B1	glycan array binding signal (z-score)	[7]	0.514
same	glycan array binding signal (z-score)	[8]	-0.191
